This is one part of the list.
B1: il2ra_site1_2b5i_normal_mot_HHH_b1_07956_af2_000000065_0001_19_34_H_._ems_3hM_420_af2_0001_0000300033_0000001_0 (protein)
chain: SNVARIIKRLLEELREKAKENNNPEVEELAEEAIEILEEALRNNDVELLQEVDELYRRIDELASS
B2: il2ra_site2_3nfp_normal_mot_HHH_b1_00660_af2_000000090_0001_40_57_H_._HHH_b2_05870_0001_0000500009_0000001_0_af2pred_0001_1_af2pred_swapped (protein)
chain: SSSSSSDEVEELIRQAEELLEKGNPEEAEELLRKAAHIAYELGDHELFARIADLLAKVDSSSSSS
B3: il2ra_site2_2erj_sap_16_mot_HHH_b1_00941_000000051_0001_45_58_H_._HHH_b2_05386_0001_0000600022_0000001_0_0001 (protein)
chain: SSSSDDRLHRIFELAVRILAAWSRGNPEEARELLEELRELVEESDSENAKELVEALEKRLKSSSS
B4: il2ra_site1_1z92_normal_mot_01209686ea234b34325f918445e6eade_0001_af2_000000154_0001_18_33_H_._HHH_b2_08134_af2_0001_0000400045_0000001_0_af2pred_0001_af2pred_1 (protein)
chain: SSSSDEEEEELERFVEQLVKELGLSEEQEEVLRRLLERALEQGIDPEKIKRALERNAKILGSSSS
B5: il2ra_site2_2erj_normal_mot_HHH_b2_01275_af2_000000073_0001_23_39_H_._HHH_b2_05199_af2_0001_0000300024_0000001_0 (protein)
chain: SSSSSEELRQLYELAVILLHLLTRGDEEEFEKVLEEAKELAKELQSDTAKEILEFLEKELSSSSS
B6: il2ra_site1_1z92_sap_24_mot_HHH_b1_04917_000000121_0001_22_38_H_._HHH_b1_01483_af2_0001_0000600028_0000001_0_0001 (protein)
chain: SSSSSSEEELDQRVLELFREASKIRDQEEKERLLEEALRLAQEANSPKVEEDVERYLRLLSSSSS
B7: il2ra_site1_3nfp_normal_mot_HHH_b1_08723_000000044_0001_1_15_H_._HHH_b2_03161_0001_0000200008_0000001_0 (protein)
chain: SSSSDRSERLEELFRELFEAAQRNDPELIEELAKELLELAEENNSKTLFRSAKFALEWVNSSSSS
B8: il2ra_site1_1z92_sap_18_mot_HHH_b1_01497_af2_000000270_0001_43_57_H_._ec49256d0a76a2d41f5dd9f5c380ddc2_0001_1_af2_0001_0000400025_0000001_1_0001_af2pred_0001_af … (protein)
chain: SSSSSAELALEANRLLHEGNPEKVEEVLEEIRRYAEEYQSRTLERLLELLEEALRELEEDSSSSS
B9: il2ra_site1_1z92_sap_10_mot_919c246ba0fc10ef4578bdc7f1052ff8_0001_af2_000000062_0001_37_52_H_._HHH_b1_05429_0001_0000400029_0000001_1_0001 (protein)
chain: SSSSSAKEYVEEMARLKYEAYEKTGDEKAREWLEFMLRFAEVRGNEELREFVEKLIEELHRSSSS
B10: il2ra_site1_3nfp_sap_15_mot_HHH_b1_00306_000000144_0001_20_36_H_._HHH_b2_04392_af2_0001_0001900099_0000001_0_0001 (protein)
chain: SSSSDRADEFAEEMARQAHEHGNRKFLERLLEQAEWMAERSRDPKIQELAEEIEELLERLRSSSS
B11: il2ra_site1_2b5i_sap_15_mot_HHH_b2_00070_000000071_0001_43_56_H_._HHH_b2_04717_0001_0000600030_0000001_0_0001_af2pred_0001_af2pred (protein)
chain: SSSSDEEFEEVIELYREASKLLRQGNREQARELLEEALKIAEEAGDEVAAEDVKRILELLSSSSS
B12: il2ra_site1_2b5i_sap_9_mot_0e5a94e4a5addaac739760efb25f0f5d_0001_000000246_0001_18_32_H_._49678f45da0a336f03cbe5a93813d6e2_0001_1_0001_0000100008_0000001_0_0001 … (protein)
chain: SSSSEERELIRELLEEARRLREEGRPEEARRLLRMALKLARKHNDEELIAEVEALLEELESSSSS
B13: il2ra_site1_3nfp_normal_mot_HHH_b2_06110_000000263_0001_43_57_H_._HHH_b1_04304_af2_0001_0000100002_0000001_0_af2pred_0001_af2pred_1_swapped (protein)
chain: SSSSNDIIRESERIAKEVQRLLREGDQERAEELIEELEEIAKKANSRAAKIFVEELKKKASSSSS
B14: il2ra_site1_2b5i_normal_mot_HHH_b2_04910_000000118_0001_1_19_H_._HHH_b1_05819_af2_0001_0000400035_0000001_0_af2pred_dldesign_0_af2pred (protein)
chain: SSSSSDKEEALRLFLEANEAKQAGKAEEARRLLLEAERLARAAGANTLLRIIQSALENLESSSSS
B15: il2ra_site1_2b5i_sap_9_mot_HHH_b2_04131_000000217_0001_1_16_H_._HHH_b1_08611_0001_0000700044_0000001_0_0001_af2pred_dldesign_0_af2pred (protein)
chain: SSSSSEFRELVKKAEEAYKKATTDEKYDKIDELYNEALRLHREGKKEEAKELLKEAISLTKSSSS
B16: il2ra_site1_2b5i_normal_mot_HHH_b1_02217_af2_000000060_0001_42_56_H_._HHH_b2_07752_af2_0001_0000100007_0000001_0_af2pred_dldesign_0_af2pred (protein)
chain: SSSSDPLWDELDRLASEAFRLKRAGKREEAKEVLEKALKIAEKLKDEKVLEEIKYLLEKISSSSS
B17: il2ra_site2_3nfp_sap_13_mot_HHH_b2_01155_000000159_0001_38_52_H_._HHH_b1_01951_0001_0000700024_0000001_0_0001 (protein)
chain: SSSSDKSEEYLRIAVLIIERALEAGDEESARNMLEVALAAAEDNGDEELEERLEELDRLVNSSSS
B18: il2ra_site2_2erj_sap_16_mot_HHH_b2_05976_000000049_0001_1_19_H_._HHH_b2_00193_0001_0000100006_0000001_0_0001 (protein)
chain: SSSSSEEIERVEELARELLEELERQGDRLAVEVLKAAIEDLEETGNPALAETLEALLRFLSSSSS

These binders were tested against il2ra, P01589 (assay: yeast display titration).

Apparent Kd, inactive:
B1 no binding seen
B2 no binding seen
B3 no binding seen
B4 no binding seen
B5 no binding seen
B6 no binding seen
B7 no binding seen
B8 no binding seen
B9 no binding seen
B10 no binding seen
B11 no binding seen
B12 no binding seen
B13 no binding seen
B14 no binding seen
B15 no binding seen
B16 no binding seen
B17 no binding seen
B18 no binding seen

Reference: PMC10163288
